Patent US20160176943A1 (INSERM INSITITUT NATIONAL DE LA SANTE ET DE LA RECHERCHE …, published 2016)
These are yes or no findings as the source states them, for the method shown. Some entries that bind do so weakly or less than the wild type.

Sequences of proteins named here, by UniProt entry; tags and fusion partners are left off. A change or cut given only in a name is not applied to a line headed by its entry. Residues count along the entry.
UniProt Q29983: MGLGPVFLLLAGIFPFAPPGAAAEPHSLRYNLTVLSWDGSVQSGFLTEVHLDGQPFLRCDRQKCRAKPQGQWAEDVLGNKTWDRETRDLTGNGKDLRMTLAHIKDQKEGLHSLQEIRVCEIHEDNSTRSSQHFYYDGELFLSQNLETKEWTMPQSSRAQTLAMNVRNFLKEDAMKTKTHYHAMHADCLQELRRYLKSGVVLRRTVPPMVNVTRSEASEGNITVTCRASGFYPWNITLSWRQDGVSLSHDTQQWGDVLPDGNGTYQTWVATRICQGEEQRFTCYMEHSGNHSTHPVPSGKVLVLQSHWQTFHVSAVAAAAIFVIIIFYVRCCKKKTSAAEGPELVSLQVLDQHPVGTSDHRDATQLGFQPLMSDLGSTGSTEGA
UniProt P26718, residues 78-216: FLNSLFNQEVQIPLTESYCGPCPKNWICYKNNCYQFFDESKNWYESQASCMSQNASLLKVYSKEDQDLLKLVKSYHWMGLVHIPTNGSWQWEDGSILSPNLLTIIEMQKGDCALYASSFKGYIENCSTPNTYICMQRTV

Columns and labels:
[1] = target: T1, MICA-B2 isoform expressed on transfected cells (human) (UniProt Q29983); test: summary of the experiments on transfectants
T1 sequence: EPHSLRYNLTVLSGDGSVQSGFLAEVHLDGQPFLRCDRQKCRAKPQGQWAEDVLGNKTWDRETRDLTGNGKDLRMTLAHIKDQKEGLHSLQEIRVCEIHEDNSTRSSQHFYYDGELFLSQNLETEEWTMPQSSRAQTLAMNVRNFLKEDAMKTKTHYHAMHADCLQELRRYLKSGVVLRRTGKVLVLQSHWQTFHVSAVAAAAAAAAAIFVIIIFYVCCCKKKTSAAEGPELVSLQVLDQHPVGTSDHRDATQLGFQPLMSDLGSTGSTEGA

[2] = target: T1, MICA-B2 isoform expressed on transfected cells (human); test: NKG2D-Fc on COS transfectants (discussion of Example 1)
[3] = target: T1, MICA-B2 isoform expressed on transfected cells (human); test: facs analysis and immunocytology on transfected COS cells
[4] = target: T1, MICA-B2 isoform expressed on transfected cells (human); test: NKG2D-Fc on COS transfectants, anti-IgG FITC, fluorescence and confocal microscopy

Measured: binding

recombinant NKG2D-Fc chimeric protein (from UniProt P26718 78-216) (Fc fusion)
binds: all assays above
